Sequences of proteins named here, by UniProt entry; tags and fusion partners are left off. Residues count along the entry.
UniProt Q5RHP9: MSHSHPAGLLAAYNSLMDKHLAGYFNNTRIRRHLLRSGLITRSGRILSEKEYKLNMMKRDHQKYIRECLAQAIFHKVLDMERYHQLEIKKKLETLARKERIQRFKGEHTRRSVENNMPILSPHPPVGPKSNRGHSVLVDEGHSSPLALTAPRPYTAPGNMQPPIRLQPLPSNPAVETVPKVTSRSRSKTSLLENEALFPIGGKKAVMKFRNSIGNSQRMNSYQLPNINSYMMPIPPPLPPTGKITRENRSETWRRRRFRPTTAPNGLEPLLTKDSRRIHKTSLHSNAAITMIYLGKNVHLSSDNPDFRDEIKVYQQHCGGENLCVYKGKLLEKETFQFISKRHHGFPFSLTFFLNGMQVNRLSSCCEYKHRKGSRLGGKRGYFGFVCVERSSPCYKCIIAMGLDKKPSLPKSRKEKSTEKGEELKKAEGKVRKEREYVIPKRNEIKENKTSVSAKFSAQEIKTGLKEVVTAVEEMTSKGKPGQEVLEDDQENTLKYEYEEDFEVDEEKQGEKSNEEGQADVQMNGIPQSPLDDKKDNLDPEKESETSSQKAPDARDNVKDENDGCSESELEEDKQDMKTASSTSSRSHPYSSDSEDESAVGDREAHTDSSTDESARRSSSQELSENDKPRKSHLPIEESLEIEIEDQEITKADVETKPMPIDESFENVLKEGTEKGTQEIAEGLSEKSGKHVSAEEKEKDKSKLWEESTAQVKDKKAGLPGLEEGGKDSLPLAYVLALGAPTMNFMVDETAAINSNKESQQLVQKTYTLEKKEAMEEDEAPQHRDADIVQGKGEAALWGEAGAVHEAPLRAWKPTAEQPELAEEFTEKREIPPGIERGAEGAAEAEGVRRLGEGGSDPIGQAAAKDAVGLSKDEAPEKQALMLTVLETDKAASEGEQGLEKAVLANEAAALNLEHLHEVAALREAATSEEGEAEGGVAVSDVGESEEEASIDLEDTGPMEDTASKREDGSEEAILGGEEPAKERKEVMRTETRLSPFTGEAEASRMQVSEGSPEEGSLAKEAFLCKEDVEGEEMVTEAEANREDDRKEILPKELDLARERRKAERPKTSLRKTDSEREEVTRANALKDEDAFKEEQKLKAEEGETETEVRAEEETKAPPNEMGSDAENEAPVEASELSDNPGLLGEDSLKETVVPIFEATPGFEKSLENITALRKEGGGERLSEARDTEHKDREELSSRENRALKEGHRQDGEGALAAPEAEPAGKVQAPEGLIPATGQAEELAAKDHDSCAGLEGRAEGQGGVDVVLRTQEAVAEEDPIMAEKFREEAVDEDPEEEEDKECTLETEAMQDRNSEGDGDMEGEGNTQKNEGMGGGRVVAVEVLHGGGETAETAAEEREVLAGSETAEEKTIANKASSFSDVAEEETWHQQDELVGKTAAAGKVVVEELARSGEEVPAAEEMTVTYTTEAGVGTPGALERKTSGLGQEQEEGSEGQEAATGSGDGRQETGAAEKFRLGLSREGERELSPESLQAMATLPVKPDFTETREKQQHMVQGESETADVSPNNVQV
UniProt Q9UM73, residues 19-1620: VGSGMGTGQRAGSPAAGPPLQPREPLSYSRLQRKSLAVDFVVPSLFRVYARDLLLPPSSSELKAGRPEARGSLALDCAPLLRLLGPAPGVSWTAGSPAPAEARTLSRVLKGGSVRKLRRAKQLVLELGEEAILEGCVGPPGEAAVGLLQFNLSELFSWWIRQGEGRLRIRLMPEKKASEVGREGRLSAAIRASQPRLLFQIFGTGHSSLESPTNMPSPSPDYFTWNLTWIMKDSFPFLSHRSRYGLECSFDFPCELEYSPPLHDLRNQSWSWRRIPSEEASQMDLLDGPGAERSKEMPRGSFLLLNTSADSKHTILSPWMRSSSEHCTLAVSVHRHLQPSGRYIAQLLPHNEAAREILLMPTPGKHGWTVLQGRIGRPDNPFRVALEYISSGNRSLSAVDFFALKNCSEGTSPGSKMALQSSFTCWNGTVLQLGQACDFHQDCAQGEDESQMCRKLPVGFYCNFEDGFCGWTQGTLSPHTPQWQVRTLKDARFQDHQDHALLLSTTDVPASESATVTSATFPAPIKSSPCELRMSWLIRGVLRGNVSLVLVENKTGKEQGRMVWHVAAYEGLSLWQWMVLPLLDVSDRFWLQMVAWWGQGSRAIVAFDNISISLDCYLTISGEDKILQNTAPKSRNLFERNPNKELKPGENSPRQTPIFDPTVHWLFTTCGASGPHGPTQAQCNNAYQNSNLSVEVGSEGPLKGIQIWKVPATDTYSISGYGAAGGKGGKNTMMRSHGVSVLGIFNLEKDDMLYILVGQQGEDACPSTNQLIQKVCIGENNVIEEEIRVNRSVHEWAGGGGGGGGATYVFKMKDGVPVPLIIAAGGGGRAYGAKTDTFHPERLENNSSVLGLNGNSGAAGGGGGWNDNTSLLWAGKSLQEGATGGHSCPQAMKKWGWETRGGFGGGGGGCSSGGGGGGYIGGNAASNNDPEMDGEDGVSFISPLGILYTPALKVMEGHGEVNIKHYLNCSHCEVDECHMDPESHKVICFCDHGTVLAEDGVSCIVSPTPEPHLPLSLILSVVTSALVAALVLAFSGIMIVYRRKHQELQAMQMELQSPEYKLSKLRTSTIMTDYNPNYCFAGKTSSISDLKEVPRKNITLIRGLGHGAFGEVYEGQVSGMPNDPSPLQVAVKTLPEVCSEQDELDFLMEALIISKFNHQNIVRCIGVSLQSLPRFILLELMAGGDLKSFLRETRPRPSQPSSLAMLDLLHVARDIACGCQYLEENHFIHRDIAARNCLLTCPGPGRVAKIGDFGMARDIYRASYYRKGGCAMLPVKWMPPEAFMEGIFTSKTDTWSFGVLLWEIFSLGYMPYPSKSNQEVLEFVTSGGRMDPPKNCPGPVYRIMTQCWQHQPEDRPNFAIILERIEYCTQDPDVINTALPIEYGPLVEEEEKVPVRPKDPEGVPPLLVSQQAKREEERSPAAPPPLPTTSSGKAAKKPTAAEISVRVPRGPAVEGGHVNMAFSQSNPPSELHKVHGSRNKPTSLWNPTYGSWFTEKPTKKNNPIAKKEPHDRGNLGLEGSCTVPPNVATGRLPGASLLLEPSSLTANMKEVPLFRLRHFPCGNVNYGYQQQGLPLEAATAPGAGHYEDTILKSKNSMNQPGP
UniProt Q2M2I8: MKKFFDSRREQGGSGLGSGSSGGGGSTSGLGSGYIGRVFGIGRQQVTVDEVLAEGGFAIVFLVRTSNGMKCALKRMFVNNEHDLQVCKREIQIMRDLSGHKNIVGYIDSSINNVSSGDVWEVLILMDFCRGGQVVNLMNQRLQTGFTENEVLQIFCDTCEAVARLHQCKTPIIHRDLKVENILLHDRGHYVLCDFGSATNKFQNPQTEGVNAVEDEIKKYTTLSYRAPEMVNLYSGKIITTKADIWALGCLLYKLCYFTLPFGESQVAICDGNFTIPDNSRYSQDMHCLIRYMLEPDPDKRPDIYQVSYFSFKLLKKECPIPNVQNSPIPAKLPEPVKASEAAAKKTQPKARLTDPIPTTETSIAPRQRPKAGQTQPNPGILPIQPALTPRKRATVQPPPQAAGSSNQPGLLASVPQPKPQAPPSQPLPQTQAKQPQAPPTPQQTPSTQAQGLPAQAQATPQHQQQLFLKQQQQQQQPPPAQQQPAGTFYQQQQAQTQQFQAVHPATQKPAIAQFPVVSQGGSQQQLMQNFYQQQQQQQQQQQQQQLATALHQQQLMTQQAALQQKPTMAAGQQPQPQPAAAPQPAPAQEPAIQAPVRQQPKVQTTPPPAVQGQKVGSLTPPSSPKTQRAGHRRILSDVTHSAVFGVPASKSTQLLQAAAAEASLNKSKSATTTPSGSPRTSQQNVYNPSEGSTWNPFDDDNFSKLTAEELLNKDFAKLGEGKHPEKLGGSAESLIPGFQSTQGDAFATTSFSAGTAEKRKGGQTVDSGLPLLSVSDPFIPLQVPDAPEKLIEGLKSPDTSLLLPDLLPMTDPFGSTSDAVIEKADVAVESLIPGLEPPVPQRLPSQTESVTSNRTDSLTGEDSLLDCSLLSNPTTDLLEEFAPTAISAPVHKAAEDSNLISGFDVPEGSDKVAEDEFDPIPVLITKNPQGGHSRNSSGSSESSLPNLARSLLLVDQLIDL
UniProt P02545, residues 1-646: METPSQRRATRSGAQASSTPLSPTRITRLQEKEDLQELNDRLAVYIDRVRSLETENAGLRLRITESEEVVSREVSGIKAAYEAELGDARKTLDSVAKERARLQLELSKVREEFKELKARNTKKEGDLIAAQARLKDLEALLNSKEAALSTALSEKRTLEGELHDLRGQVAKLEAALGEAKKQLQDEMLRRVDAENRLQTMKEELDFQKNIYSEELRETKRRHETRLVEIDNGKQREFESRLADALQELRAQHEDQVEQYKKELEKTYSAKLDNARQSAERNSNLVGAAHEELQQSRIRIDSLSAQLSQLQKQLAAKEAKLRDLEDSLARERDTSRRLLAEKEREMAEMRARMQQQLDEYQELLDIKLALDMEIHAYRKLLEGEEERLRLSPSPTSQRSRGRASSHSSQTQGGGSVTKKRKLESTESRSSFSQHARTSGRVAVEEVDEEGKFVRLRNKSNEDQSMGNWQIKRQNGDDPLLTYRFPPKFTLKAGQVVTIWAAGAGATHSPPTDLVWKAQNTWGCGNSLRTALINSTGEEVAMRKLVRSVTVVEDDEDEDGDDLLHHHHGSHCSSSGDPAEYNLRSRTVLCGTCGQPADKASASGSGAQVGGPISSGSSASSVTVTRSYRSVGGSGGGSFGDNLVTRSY
UniProt O00443: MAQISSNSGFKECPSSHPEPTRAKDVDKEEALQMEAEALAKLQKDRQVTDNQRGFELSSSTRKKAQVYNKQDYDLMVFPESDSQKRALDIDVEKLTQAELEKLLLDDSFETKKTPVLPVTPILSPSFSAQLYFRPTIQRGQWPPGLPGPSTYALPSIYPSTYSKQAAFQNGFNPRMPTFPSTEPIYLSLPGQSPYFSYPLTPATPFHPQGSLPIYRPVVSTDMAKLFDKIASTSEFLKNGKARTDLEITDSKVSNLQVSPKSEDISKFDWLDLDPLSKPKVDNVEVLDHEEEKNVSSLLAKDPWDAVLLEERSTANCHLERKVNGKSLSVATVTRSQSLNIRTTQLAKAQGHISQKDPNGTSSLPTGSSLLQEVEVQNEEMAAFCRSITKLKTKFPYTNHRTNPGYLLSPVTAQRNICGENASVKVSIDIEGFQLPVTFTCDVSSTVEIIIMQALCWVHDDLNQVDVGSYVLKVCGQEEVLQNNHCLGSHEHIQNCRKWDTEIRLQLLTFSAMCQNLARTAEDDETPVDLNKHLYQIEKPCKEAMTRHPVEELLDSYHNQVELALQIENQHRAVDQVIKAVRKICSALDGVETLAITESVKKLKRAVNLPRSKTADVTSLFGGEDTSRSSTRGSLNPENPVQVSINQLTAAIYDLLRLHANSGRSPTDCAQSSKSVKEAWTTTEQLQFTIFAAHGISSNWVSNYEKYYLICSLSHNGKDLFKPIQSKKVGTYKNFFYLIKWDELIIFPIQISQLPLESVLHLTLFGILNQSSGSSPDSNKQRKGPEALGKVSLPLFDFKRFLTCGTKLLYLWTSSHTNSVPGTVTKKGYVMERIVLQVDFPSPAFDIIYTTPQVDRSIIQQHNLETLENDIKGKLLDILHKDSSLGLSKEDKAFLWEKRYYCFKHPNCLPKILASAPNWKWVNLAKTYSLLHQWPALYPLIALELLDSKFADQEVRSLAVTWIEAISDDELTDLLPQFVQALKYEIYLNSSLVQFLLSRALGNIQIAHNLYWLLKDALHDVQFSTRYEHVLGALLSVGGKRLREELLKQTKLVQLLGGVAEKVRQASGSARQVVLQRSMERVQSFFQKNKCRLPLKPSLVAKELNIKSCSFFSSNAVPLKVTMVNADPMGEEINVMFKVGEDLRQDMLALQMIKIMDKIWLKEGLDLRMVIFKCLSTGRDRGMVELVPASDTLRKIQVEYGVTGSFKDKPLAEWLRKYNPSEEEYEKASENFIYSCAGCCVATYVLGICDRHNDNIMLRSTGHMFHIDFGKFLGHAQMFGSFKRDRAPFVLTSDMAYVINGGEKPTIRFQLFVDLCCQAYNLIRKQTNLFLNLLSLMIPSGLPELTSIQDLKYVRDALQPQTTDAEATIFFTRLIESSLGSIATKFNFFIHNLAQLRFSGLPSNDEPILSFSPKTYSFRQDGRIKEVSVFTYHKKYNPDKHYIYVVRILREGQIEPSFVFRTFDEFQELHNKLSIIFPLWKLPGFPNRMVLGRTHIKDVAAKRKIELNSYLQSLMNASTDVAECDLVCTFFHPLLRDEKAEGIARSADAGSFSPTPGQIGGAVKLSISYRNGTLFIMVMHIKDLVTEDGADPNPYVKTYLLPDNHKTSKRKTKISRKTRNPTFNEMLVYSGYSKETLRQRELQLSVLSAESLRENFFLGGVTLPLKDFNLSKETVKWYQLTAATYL

According to publication PMC8141066:

B1: POF1B (protein, UniProt Q8WVV4 1-589)
chain: MSSSYWSETSSSSCGTQQLPEVLQCQPQHYHCYHQSSQAQQPPEKNVVYERVRTYSGPMNKVVQALDPFNSREVLSPLKTTSSYQNLVWSDHSQELHSPTLKISTCAPSTLHITQNTEQELHSPTVKLTTYPQTTIRKYVVQNPEQEPLSQFLRGSHFFPGNNVIYEKTIRKVEKLNTDQGCHPQAQCHHHIIQQPQVIHSAHWQQPDSSQQIQAITGNNPISTHIGNELCHSGSSQICEQVIIQDDGPEKLDPRYFGELLADLSRKNTDLYHCLLEHLQRIGGSKQDFESTDESEDIESLIPKGLSEFTKQQIRYILQMRGMSDKSLRLVLSTFSNIREELGHLQNDMTSLENDKMRLEKDLSFKDTQLKEYEELLASVRANNHQQQQGLQDSSSKCQALEENNLSLRHTLSDMEYRLKELEYCKRNLEQENQNLRMQVSETCTGPMLQAKMDEIGNHYTEMVKNLRMEKDREICRLRSQLNQYHKDVSKREGSCSDFQFKLHELTSLLEEKDSLIKRQSEELSKLRQEIYSSHNQPSTGGRTTITTKKYRTQYPILGLLYDDYEYIPPGSETQTIVIEKTEDKYTCP
B2: TMPO (protein, UniProt P42166 1-694)
chain: MPEFLEDPSVLTKDKLKSELVANNVTLPAGEQRKDVYVQLYLQHLTARNRPPLPAGTNSKGPPDFSSDEEREPTPVLGSGAAAAGRSRAAVGRKATKKTDKPRQEDKDDLDVTELTNEDLLDQLVKYGVNPGPIVGTTRKLYEKKLLKLREQGTESRSSTPLPTISSSAENTRQNGSNDSDRYSDNEEGKKKEHKKVKSTRDIVPFSELGTTPSGGGFFQGISFPEISTRPPLGSTELQAAKKVHTSKGDLPREPLVATNLPGRGQLQKLASERNLFISCKSSHDRCLEKSSSSSSQPEHSAMLVSTAASPSLIKETTTGYYKDIVENICGREKSGIQPLCPERSHISDQSPLSSKRKALEESESSQLISPPLAQAIRDYVNSLLVQGGVGSLPGTSNSMPPLDVENIQKRIDQSKFQETEFLSPPRKVPRLSEKSVEERDSGSFVAFQNIPGSELMSSFAKTVVSHSLTTLGLEVAKQSQHDKIDASELSFPFHESILKVIEEEWQQVDRQLPSLACKYPVSSREATQILSVPKVDDEILGFISEATPLGGIQAASTESCNQQLDLALCRAYEAAASALQIATHTAFVAKAMQADISQAAQILSSDPSRTHQALGILSKTYDAASYICEAAFDEVKMAAHTMGNATVGRRYLWLKDCKINLASKNKLASTPFKGGTLFGGEVCKVIKKRGNKH
B3: TMOD1 (protein, UniProt P28289 1-359)
chain: MSYRRELEKYRDLDEDEILGALTEEELRTLENELDELDPDNALLPAGLRQKDQTTKAPTGPFKREELLDHLEKQAKEFKDREDLVPYTGEKRGKVWVPKQKPLDPVLESVTLEPELEEALANASDAELCDIAAILGMHTLMSNQQYYQALSSSSIMNKEGLNSVIKPTQYKPVPDEEPNSTDVEETLERIKNNDPKLEEVNLNNIRNIPIPTLKAYAEALKENSYVKKFSIVGTRSNDPVAYALAEMLKENKVLKTLNVESNFISGAGILRLVEALPYNTSLVEMKIDNQSQPLGNKVEMEIVSMLEKNATLLKFGYHFTQQGPRLRASNAMMNNNDLVRKRRLADLTGPIIPKCRSGV

These molecules were tested against glutamate-rich 3 (ERICH3), endogenous in SK-N-SH cells (human (endogenous in SK-N-SH)) (UniProt Q5RHP9) (assay: affinity purification with mass spectrometry; Co-IP with ERICH3 antibody (Ab-Ex 14) from SK-N-SH cells, non-specific rabbit IgG as negative control; SDS-PAGE, silver staining, bands cut out for MS).

binding, binds:
ALK (from UniProt Q9UM73 19-1620)
AP2 associated kinase 1 (AAK1) (from UniProt Q2M2I8 1-961)
CUX1 (from UniProt P39880 1-1505)
LMNA (from UniProt P02545 1-646)
adaptor related protein complex 2 subunit alpha 2 (AP2A2) (from UniProt O94973 1-939)
clathrin heavy chain (CLTC) (from UniProt Q00610 1-1675)
myosin heavy chain 10 (from UniProt P35580 1-1976)
phosphatidylinositol-4-phosphate 3-kinase catalytic subunit type 2 alpha (PIK3C2A) (from UniProt O00443 1-1686)
B1
B2
B3

Results are given in words; binding and its absence hold for the method and conditions named. In cells and extracts the contact can be indirect. Here binding means that the protein was enriched with, or labelled near, the bait; the list need not be complete.
